Literature values as cited in patent publication US20230242641A1, “SLAMF7 CARS” (JULIUS-MAXIMILIANS-UNIVERSITÄT WÜRZBURG, priority 2020, published 2023).
For at least one compound, name, drawing or mass did not settle the structure.

Test system: MM.1S cells
Conditions: after 48 hours of treatment; cited from earlier work

Cc1[nH]c2ccccc2c1CCNCc1ccc(/C=C/C(=O)NO)cc1 [Panobinostat]
eradication of MM.1S: less than 20%
